The list shows only some results of the screen, not a fair sample: it gathers tests that were run many times, whatever their T/C, doses with no T/C, and many T/C values between a quarter and a half above the control. Further doses and runs are listed elsewhere. T/C is the treated group as % of the vehicle group. Some entries give survivors of the animals treated and no T/C: the source holds a T/C of zero for them, seemingly a mark for toxic or unscored doses. Some survivor counts are full or nearly so, which does not show that the dose was tolerated: survival well below the control is almost never listed, so the zero probably covers shortened survival too. Survivors were counted at the toxicity check, usually on the fifth day, unless a day is given; later deaths do not show. Schedules are NCI's codes, read here as Q, the interval in days (D) or hours (H), X, the number of doses. Some doses were run more than once; their values stand side by side, smallest first. Where survival is the endpoint, the PubChem record calls one and a half times the control and up active, and a quarter to a half above the control has no call in these data; cut-offs in other NCI protocols can differ. Some T/C values carry the count of animals alive at the toxicity check (mostly the fifth day); where none is given, no animal had died by that day.
Tested on: L1210 leukemia ip in BDF1 mice, survival T/C
Test: NCI In Vivo Anticancer Drug Screen. Data for tumor model L1210 Leukemia (intraperitoneal) in B6D2F1 (BDF1) mice
Settings: T/C endpoint: mean survival time, higher T/C = longer survival
[1] = dose: 400.0 mg/kg/injection, schedule: Q01DX009 (ip), vehicle: saline with Tween-80
[2] = dose: 100.0 mg/kg/injection, schedule: Q01DX009 (ip), vehicle: saline
[3] = dose: 200.0 mg/kg/injection, schedule: Q01DX009 (ip), vehicle: saline
[4] = dose: 400.0 mg/kg/injection, schedule: Q01DX009 (ip), vehicle: saline
[5] = dose: 200.0 mg/kg/injection, schedule: Q04DX003 (ip), vehicle: saline

c1n[nH]c2c1CCCC2
survivor count (dose: 400.0 mg/kg/injection, schedule: Q01DX001 (ip), vehicle: saline with Tween-80): 3 of 6 | survivor count [1]: 5 of 6 | survivor count (dose: 400.0 mg/kg/injection, schedule: Q04DX002 (ip), vehicle: saline with Tween-80): 0 of 3

O=c1cc[nH]c2c([N+](=O)[O-])cccc12
survivor count (dose: 400.0 mg/kg/injection, schedule: Q01DX001 (ip), vehicle: saline): 0 of 6

C[n+]1ccccc1SC12CC3CC(CC(C3)C1)C2
survivor count (dose: 20.0 mg/kg/injection, schedule: Q01DX009 (ip), vehicle: Klucel (hydroxypropylcellulose) (HPC)): 0 of 6 | survivor count (dose: 40.0 mg/kg/injection, schedule: Q01DX009 (ip), vehicle: Klucel (hydroxypropylcellulose) (HPC)): 0 of 6

Cc1cccc(OCC(O)CN(Cc2ccsc2)c2ccccn2)c1 (stereo not given)
survivor count (dose: 400.0 mg/kg/injection, schedule: Q04DX002 (ip), vehicle: Klucel (hydroxypropylcellulose) (HPC)): 0 of 3

O=C(Cc1ccccc1)NCCO
T/C (dose: 400.0 mg/kg/injection, schedule: Q04DX002 (ip), vehicle: saline): 125 % of control

COc1ccc2nc3cc(Cl)ccc3c(NC(C)CCCN(CCCl)CCCl)c2c1 (stereo not given)
survivor count (dose: 2.0 mg/kg/injection, schedule: Q01DX009 (ip), vehicle: saline): 3 of 6

CC(C)CCCC(C)C1CCC2C3CCC4CC(=O)CCC4(C)C3CCC12C (stereo not given)
survivor count (dose: 50.0 mg/kg/injection, schedule: Q01DX009 (ip), vehicle: Klucel (hydroxypropylcellulose) (HPC)): 3 of 3

[Cl][Sn]([Cl])([c]1ccccc1)[c]1ccccc1.c1ccncc1
survivor count [2]: 1 of 3 | survivor count [3]: 0 of 6 | survivor count [4]: 0 of 6

CCOc1ccc(NC(=O)Nc2cccc(F)c2)cc1
survivor count (dose: 100.0 mg/kg/injection, schedule: Q01DX009 (ip), vehicle: Klucel (hydroxypropylcellulose) (HPC)): 5 of 6 | survivor count (dose: 400.0 mg/kg/injection, schedule: Q01DX009 (ip), vehicle: Klucel (hydroxypropylcellulose) (HPC)): 6 of 6

CC(CCc1ccccc1)NC(C)C(O)c1ccc(O)cc1 (stereo not given)
survivor count [3]: 2 of 6 | survivor count [5]: 4 of 4 | survivor count [4]: 1 of 6

CCOC(=O)C(C#N)C(=N)C1CC(C)(C)OC1=O (stereo not given)
survivor count (dose: 300.0 mg/kg/injection, schedule: Q01DX001 (ip), vehicle: other): 2 of 6

CCOC(=O)C(C#N)C(C)(C[N+](=O)[O-])C1CC1 (stereo not given)
survivor count (dose: 6.25 mg/kg/injection, schedule: Q04DX003 (ip), vehicle: saline with Tween-80): 0 of 6 | survivor count (dose: 12.5 mg/kg/injection, schedule: Q04DX003 (ip), vehicle: saline with Tween-80): 0 of 6 | survivor count (dose: 25.0 mg/kg/injection, schedule: Q04DX003 (ip), vehicle: saline with Tween-80): 0 of 6 | survivor count (dose: 100.0 mg/kg/injection, schedule: Q04DX003 (ip), vehicle: saline with Tween-80): 0 of 6 | survivor count (dose: 200.0 mg/kg/injection, schedule: Q04DX003 (ip), vehicle: saline with Tween-80): 0 of 6 | survivor count (dose: 400.0 mg/kg/injection, schedule: Q04DX003 (ip), vehicle: saline with Tween-80): 0 of 6

CC(=O)Nc1cc(NC(C)=O)cc(N(CCO)CCO)c1
survivor count (dose: 200.0 mg/kg/injection, schedule: Q01DX009 (ip), vehicle: water): 4 of 6

CC(C)(Cl)Cc1ccccc1
survivor count [1]: 6 of 6

N=c1ccc2nc3ccc(N)cc3sc-2c1
survivor count [2]: 0 of 6 | survivor count [5]: 1 of 6 | survivor count (dose: 400.0 mg/kg/injection, schedule: Q04DX003 (ip), vehicle: saline): 0 of 6

[N-]=[N+]=[N-]
survivor count (dose: 40.0 mg/kg/injection, schedule: Q01DX001 (ip), vehicle: saline): 0 of 4 | survivor count (dose: 62.0 mg/kg/injection, schedule: Q01DX015 (ip), vehicle: saline): 0 of 6 | survivor count (dose: 80.0 mg/kg/injection, schedule: Q01DX001 (ip), vehicle: saline): 0 of 4 | survivor count (dose: 125.0 mg/kg/injection, schedule: Q01DX015 (ip), vehicle: saline): 0 of 6 | survivor count (dose: 250.0 mg/kg/injection, schedule: Q01DX015 (ip), vehicle: saline): 0 of 6 | survivor count (dose: 500.0 mg/kg/injection, schedule: Q01DX015 (ip), vehicle: saline): 0 of 6

NC(=O)N/N=C1\CC2CC1C1C=CCC21 (stereo not given)
survivor count (dose: 400.0 mg/kg/injection, schedule: Q01DX001 (ip), vehicle: carboxymethylcellulose (CMC)): 2 of 4

COc1cc(C=Nc2ccc3ccccc3c2)ccc1N(CCCl)CCCl
T/C (dose: 2.0 mg/kg/injection, schedule: Q01DX009 (ip), vehicle: carboxymethylcellulose (CMC)): 130 % of control | T/C (dose: 5.0 mg/kg/injection, schedule: Q01DX009 (ip), vehicle: other): 132 % of control | T/C (dose: 7.4 mg/kg/injection, schedule: Q01DX009 (ip), vehicle: other): 135 % of control | T/C (dose: 8.8 mg/kg/injection, schedule: Q01DX009 (ip), vehicle: carboxymethylcellulose (CMC)): 139 % of control | T/C (dose: 11.0 mg/kg/injection, schedule: Q01DX009 (ip), vehicle: other): 143 % of control | T/C (dose: 13.3 mg/kg/injection, schedule: Q01DX009 (ip), vehicle: carboxymethylcellulose (CMC)): 145 % of control | T/C (dose: 15.0 mg/kg/injection, schedule: Q01DX001 (ip), vehicle: carboxymethylcellulose (CMC)): 135 % of control | T/C (dose: 17.0 mg/kg/injection, schedule: Q01DX001 (ip), vehicle: carboxymethylcellulose (CMC)): 136 % of control | T/C (dose: 17.0 mg/kg/injection, schedule: Q01DX009 (ip), vehicle: other): 149 % of control | T/C (dose: 26.0 mg/kg/injection, schedule: Q01DX001 (ip), vehicle: carboxymethylcellulose (CMC)): 134 % of control | T/C (dose: 30.0 mg/kg/injection, schedule: Q01DX001 (ip), vehicle: carboxymethylcellulose (CMC)): 129 % of control [5 of 6 alive] | T/C (dose: 60.0 mg/kg/injection, schedule: Q01DX001 (ip), vehicle: carboxymethylcellulose (CMC), evaluated on day 30): 147 % of control | T/C (dose: 60.0 mg/kg/injection, schedule: Q01DX001 (ip), vehicle: carboxymethylcellulose (CMC), run until all animals had died): 143 % of control | survivor count (dose: 150.0 mg/kg/injection, schedule: Q01DX001 (ip), vehicle: carboxymethylcellulose (CMC)): 1 of 6 | survivor count (dose: 300.0 mg/kg/injection, schedule: Q01DX001 (ip), vehicle: carboxymethylcellulose (CMC)): 0 of 6

O=C(O)/C=C/Sc1ccccc1
survivor count (dose: 100.0 mg/kg/injection, schedule: Q04DX003 (ip), vehicle: Klucel (hydroxypropylcellulose) (HPC)): 2 of 6 and 4 of 6 | survivor count (dose: 200.0 mg/kg/injection, schedule: Q04DX003 (ip), vehicle: Klucel (hydroxypropylcellulose) (HPC)): 0 of 6 | survivor count (dose: 400.0 mg/kg/injection, schedule: Q04DX003 (ip), vehicle: Klucel (hydroxypropylcellulose) (HPC)): 0 of 6

Reference: PubChem BioAssay AID248 (DTP/NCI, 2004)
